Article PMC4655416
These are yes or no findings as the source states them, for the method shown.

Target: protein phosphatase 5 from C. elegans (PPH-5) (C. elegans) (UniProt Q9NES8)
Experiment: SAXS; in-house SAXS of CeHsp90, PPH-5 and their mixtures at 2:1 and 2:2 (CeHsp90 monomer:PPH-5); 0.8 to 6.3 mg/ml; mass from the Porod volume; both purified

- binding: no binding
B1: protein phosphatase 5 from C. elegans (PPH-5) (enzyme, UniProt Q9NES8 1-496)
chain: MAATITDDIVATVLESIEEKSYEDEKEKAGMIKDEANQFFKDQVYDVAADLYSVAIEIHPTAVLYGNRAQAYLKKELYGSALEDADNAIAIDPSYVKGFYRRATANMALGRFKKALTDYQAVVKVCPNDKDARAKFDECSKIVRRQKFEAAISTDHDKKTVAETLDINAMAIEDSYDGPRLEDKITKEFVLQLIKTFKNQQKLHKKYAFKMLLEFYNYVKSLPTMVEITVPTGKKFTICGDVHGQFYDLCNIFEINGYPSETNPYLFNGDFVDRGSFSVETIFTMIGFKLLYPNHFFMSRGNHESDVMNKMYGFEGEVKAKYTQQMCDMFTETFCWLPLCHLINEKIFVCHGGLFKEDGVTLEDIRKTDRNRQPPDEGIMCDLLWSDPQPINGRSPSKRGVGCQFGPDVTSKWCETNGIEYVVRSHEVKPEGYEMHHNGQCFTVFSAPNYCDQMNNKGAFITITGDNLTPRFTPFDAVPHPKLPPMAYANSLFGFN
